Values quoted from earlier work, collected in PMC12769565, “Design, synthesis and biological activity of glycoconjugated ADAMTS5 exosite inhibitors: applications in osteoarthritis and ovarian cancer models” (Scientific Reports, 2025).

Test system: HEK293
Set-up: method as in ChEMBL
Settings: ref ChEMBL, read-out: EC50 (Standard Value); cited from earlier work

## Clc1ccccc1C(c1ccccc1)(c1ccccc1)n1ccnc1 [CHEMBL104]
  EC50: 3000 nM
